Source: PubChem BioAssay AID504467 (National Center for Advancing Translational Sciences (NCATS), 2011)
About 7,700 (2.3%) of roughly 330,000 compounds were called active. The shares of active, inactive and inconclusive entries below differ from those in the screen. Calls follow the shape of the dose curve; as a rule, active = well fitted inhibition curve with a large enough effect; inconclusive = small, poorly fitted or top-dose-only effect, or effect the other way; inactive = flat fitted curve, though single readings scatter. Potencies beside an inconclusive call are fits to weak or partial responses and may not hold up.

assay: qHTS screen for small molecules that inhibit ELG1-dependent DNA repair in human embryonic kidney (HEK293T) cells expressing luciferase-tagged ELG1; details: HEK293T ELG1-luciferase reporter, luminescence, 16 h, DNA damage induced by 5-fluorouridine; activity change, negative = inhibition: at 46.1 µM (top of the series); also: nearly all actives have a fitted effect of over 55% in size
Method in brief: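 Overnight (16 hr) co-exposure of 2,000 cells/well to 5-fluorouridine and compound at 37 °C preceded detection. Luciferase was quantified via ONE-Glo luminescence; loss of signal denotes inhibition.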
% is scaled to controls: 0 for no effect and ±100 for the full control effect; potency is read from the fitted curve at half-maximal effect.

Row | SMILES | activity change, negative = inhibition | Potency
1 | O=S(=O)(c1ccccc1)N1CCN(CC(O)COc2ccc3c(c2)CCC3)CC1 (stereo unspecified) | inactive: -29.8% | –
2 | CN(C)S(=O)(=O)c1ccc(Cl)c(NC(=O)CN2CCC(Cc3ccccc3)CC2)c1 | – | inconclusive: 14.6 µM [inhibitor, single point]
3 | N#C/C(=N\Nc1ccc(F)cc1)C(=N)N1CCCCCC1 | – | inconclusive: 2.59 µM [activator, full curve]
4 | COc1cccc(C(=O)CC(C#N)c2ccc(F)cc2)c1 (stereo unspecified) | inactive: 1.81% | –
5 | CCOc1c(Br)cc(/C=C2\C(=O)N(CCC#N)N=C2C)cc1OC | – | inconclusive: 20.6 µM [activator, partial curve, poor fit]
6 | CC(C)Oc1cccc(C(=O)NC(=S)Nc2cccc(NC(=O)c3ccccc3Cl)c2)c1 | – | inconclusive: 25.9 µM [inhibitor, single point]
7 | CC(=O)c1c(C)nc(Nc2nc3ccccc3s2)nc1C | – | inconclusive: 1.83 µM [activator, full curve]
8 | Cc1cccc(Nc2nc(-c3ccncc3)cs2)c1 | – | inconclusive: 4.11 µM [activator, full curve]
9 | Cc1nc(-c2ccc(F)cc2)c(CC(=O)N2CCN(S(=O)(=O)c3cccc(F)c3)CC2)s1 | – | inconclusive: 25.9 µM [inhibitor, single point]
10 | COc1ccc(NC(=S)N2CCC(N(C)CC3CCCO3)CC2)cc1 (stereo unspecified) | inactive: -0.431% | –
11 | c1ccc(CN2CCN(C(c3ccccc3)c3nnnn3Cc3ccccc3)CC2)cc1 (stereo unspecified) | – | inconclusive: 14.6 µM [inhibitor, partial curve]
12 | COc1cc(-c2ccc3c(=O)c4ccccc4n(C)c3c2)cc(OC)c1OC | – | inconclusive: 8.2 µM [inhibitor, partial curve]
13 | COCCCNc1nc2nonc2nc1NCCSC | – | active: 23.1 µM
14 | N/C(=N\OC(=O)c1cccc(Br)c1)c1ccc(Br)cc1 | – | inconclusive: 29.1 µM [activator, single point]
15 | O=C(Nc1ccccc1)c1ccc(-c2ccccc2Cl)o1 | – | inconclusive: 4.11 µM [activator, full curve]
16 | O=C(c1ccccc1)c1ccc2c(c1)OCCCO2 | – | inconclusive: 9.2 µM [activator, partial curve]
17 | Cc1nc2ccc([N+](=O)[O-])cc2c(=O)n1Cc1ccc(F)cc1 | inactive: -7.11% | –
18 | O=C(CSc1nc2ccc(Nc3nc(N4CCOCC4)nc(N4CCOCC4)n3)cc2s1)N1CCOCC1 | – | active: 2.59 µM
19 | Fc1ccc(-c2nc(-c3cnccn3)no2)c(Cl)c1 | – | inconclusive: 6.51 µM [activator, partial curve]
20 | CCc1ccc(/C=N/NC(=O)c2nnn(-c3nonc3N)c2C(C)C)cc1 | inactive: 8.79% | –
21 | Cc1nc(NCc2cccnc2)c2c3c(sc2n1)CC(C)CC3 (stereo unspecified) | – | inconclusive: 29.1 µM [inhibitor, single point]
22 | COc1ccc(-c2cc(-c3ccccc3)nc3ncnn23)cc1 | – | inconclusive: 29.1 µM [inhibitor, single point]
23 | Cc1cc(CN(C)C(=O)c2cc(COc3ccc(C)c(C)c3)on2)n[nH]1 | – | inconclusive: 5.8 µM [activator, partial curve]
24 | Cc1ccc(-c2csc3ncnc(Nc4ccc(C(=O)O)cc4)c23)cc1 | – | inconclusive: 25.9 µM [inhibitor, partial curve, poor fit]

In another format: 3 of the compounds above.

| Row | SMILES | activity change, negative = inhibition | Potency |
| --- | --- | --- | --- |
| 9 | Cc1nc(-c2ccc(F)cc2)c(CC(=O)N2CCN(S(=O)(=O)c3cccc(F)c3)CC2)s1 | – | inconclusive: 25.9 µM [inhibitor, single point] |
| 10 | COc1ccc(NC(=S)N2CCC(N(C)CC3CCCO3)CC2)cc1 (stereo unspecified) | inactive: -0.431% | – |
| 11 | c1ccc(CN2CCN(C(c3ccccc3)c3nnnn3Cc3ccccc3)CC2)cc1 (stereo unspecified) | – | inconclusive: 14.6 µM [inhibitor, partial curve] |

Later entries

Row | SMILES | activity change, negative = inhibition | Potency
25 | O=S(=O)(CCN1CCSCC1)c1ccccc1 | inactive: 21.5% | –
26 | COc1ccccc1NC(=O)CC(c1ccc(OC(C)C)cc1)c1ccccc1OC (stereo unspecified) | – | active: 8.2 µM
27 | COc1ccccc1C(=O)NN=C1CCN(Cc2ccccc2)CC1 | – | inconclusive: 23.1 µM [activator, partial curve, poor fit]
28 | CCC(C(=O)NC1CCCC1)N(Cc1ccccc1Cl)C(=O)c1snc(C(N)=O)c1N (stereo unspecified) | – | inconclusive: 14.6 µM [inhibitor, partial curve]
29 | CC(C)n1cc(C(=O)c2ccccc2O)cc(C#N)c1=O | inactive: -29.9% | –
30 | CSc1ccccc1C(=O)C1CCCN(Cc2c(C)n(C)n(-c3ccccc3)c2=O)C1 (stereo unspecified) | inactive: 2.73% | –
31 | Cc1cccc(C(=O)NC(C(=O)Nc2ccccc2N2CCOCC2)C(C)C)c1 (stereo unspecified) | inactive: -18.7% | –
32 | COc1ccc(CC(NC(C)=O)C(=O)NC2CCN(C(=O)NCc3ccccc3)CC2)cc1 (stereo unspecified) | – | inconclusive: 29.1 µM [activator, single point]
33 | O=C(/C=C/c1cccs1)c1cc(Br)ccc1OC(=O)N1CCOCC1 | – | active: 16.4 µM
34 | CCCCC(=O)Nc1ccc(NC(=O)c2ccc([N+](=O)[O-])cc2)cc1OC | – | inconclusive: 4.61 µM [inhibitor, single point]
35 | COC(=O)Cn1c(=NC(=O)c2cc(-c3cccs3)nc3ccccc23)sc2cc(S(N)(=O)=O)ccc21 | – | active: 9.2 µM
36 | CCOC(=O)c1[nH]c(C)c(C(=O)OCC(=O)N2CCc3ccccc32)c1C | inactive: -1.38% | –
37 | COc1cccc(CNC(=O)CCC2CCCN(C(=O)c3ccc(OC)o3)C2)c1 (stereo unspecified) | – | inconclusive: 23.1 µM [activator, single point]
38 | N#Cc1c(-c2ccc3c(c2)OCO3)cc[nH]c1=O | – | inconclusive: 9.2 µM [inhibitor, partial curve, poor fit]
39 | CCCNC(=O)C(Cc1ccccc1)NS(=O)(=O)c1ccc2c(c1)c(=O)n(C)c(=O)n2C (stereo unspecified) | inactive: 5.23% | –
40 | CC1=NC(=O)C(N=Nc2cccc(C(=O)O)c2)N1c1ccccc1 (stereo unspecified) | – | inconclusive: 0.0651 µM [activator, full curve, poor fit]
41 | Cn1nc(C(=O)NC2CCCCC2)c2ccccc2c1=O | – | inconclusive: 16.4 µM [activator, single point]
42 | O=C(/C=C/c1cccs1)N1CCCCC1 | – | inconclusive: 29.1 µM [activator, single point]
43 | COc1cccc(/C=N/NC(=O)c2ccc(N(C)S(=O)(=O)c3ccccc3)cc2)c1OC | – | inconclusive: 14.6 µM [inhibitor, single point]
44 | CCn1c(CNC(=O)c2cccs2)nnc1SCC(=O)Nc1cc(Cl)ccc1C | – | inconclusive: 23.1 µM [inhibitor, single point]
45 | COc1ccc(S(=O)(=O)c2cnc3ccccc3n2)cc1 | inactive: 1.43% | –
46 | Cc1cccc2cc(C(c3nnnn3CC3CCCO3)N3CCc4ccccc4C3)c(=O)[nH]c12 (stereo unspecified) | inactive: -1.88% | –
47 | Cc1cccc(NC(=S)NC(=O)/C=C/c2ccccc2)n1 | – | inconclusive: 20.6 µM [activator, partial curve, poor fit]
48 | Cc1cccc(C)c1NC(=O)CNC(=O)c1c(C)nn(C)c1Cl | – | inconclusive: 20.6 µM [inhibitor, single point]

Row | SMILES | activity change, negative = inhibition | Potency
49 | Cc1ccc(-n2nc3c(N4CCC(C(=O)NCc5cccc(F)c5)CC4)nnc(C)c3c2C)cc1 | – | active: 16.4 µM
50 | COc1ccc(NCCC(O)c2ccc(Cl)cc2)cc1 (stereo unspecified) | inactive: 2.67% | –
51 | CSc1ncccc1C(=O)Nc1ccc2c(c1)OCO2 | – | inconclusive: 20.6 µM [activator, partial curve, poor fit]
52 | CCn1c(Oc2cccc(Br)c2)nc2c1c(=O)n(C)c(=O)n2C | – | inconclusive: 9.2 µM [inhibitor, partial curve, poor fit]
53 | Cc1ccc(OCc2nc(C#N)c(N3CCCCC3)o2)cc1 | inactive: 14.4% | –
54 | CC(=O)Nc1cc(C(=O)N2CCCC2)ccc1Sc1ccc(C)cc1 | – | inconclusive: 20.6 µM [inhibitor, partial curve, poor fit]
55 | O=c1cc(-c2ccccc2[N+](=O)[O-])oc2ccccc12 | inactive: -5.67% | –
56 | COc1ccccc1-c1ccc(SCC(=O)NCc2ccc3c(c2)OCO3)nn1 | – | inconclusive: 29.1 µM [inhibitor, single point]
57 | OC1(c2ccc(Cl)c(Cl)c2)C[n+]2ccccc2N1Cc1ccccc1 (stereo unspecified) | – | inconclusive: 20.6 µM [activator, single point]
58 | CCc1noc(C)c1C(=O)Nc1nc2c(F)cc(F)cc2s1 | – | inconclusive: 23.1 µM [activator, partial curve, poor fit]
59 | O=C(NCc1ccco1)C(=O)NCC1OCCN1S(=O)(=O)c1cc(F)ccc1F (stereo unspecified) | inactive: 13.4% | –
60 | CCOc1ccc(N2C(=O)C(CC(=O)Nc3ccccc3)N(Cc3ccccn3)C2=S)cc1 (stereo unspecified) | – | inconclusive: 6.51 µM [activator, single point]
61 | Cc1cc(Cl)c(S(=O)(=O)Nc2cccc(O)c2)cc1OCC(N)=O | inactive: 14.7% | –
62 | COc1ccc(CC(=O)N(Cc2ccccc2)c2ccccc2)cc1S(=O)(=O)N1CCOCC1 | – | active: 16.4 µM
63 | COc1ccc(CCNC(=O)c2coc(=O)c(Br)c2)cc1 | – | inconclusive: 23.1 µM [activator, partial curve]
64 | Cc1ccc(NC(=O)NC(=O)N(C2CCCCC2)S(=O)(=O)c2ccccc2)cc1 | – | inconclusive: 16.4 µM [activator, partial curve]
65 | Cc1cccc[n+]1CC(=O)c1ccc(NC(=O)c2ccccc2)cc1 | inactive: -8.19% | –
66 | CC(=O)c1cccc(NC(=O)NC2CCCCCCC2)c1 | – | inconclusive: 20.6 µM [activator, single point]
67 | CN(C)c1ccc(-c2nn3c(-c4ccccc4Cl)nnc3s2)cc1 | – | inconclusive: 1.3 µM [inhibitor, single point]
68 | O=c1[nH]c(-c2ccccc2O)nc2c1CCCC2 | – | inconclusive: 1.26 µM [inhibitor, single point]
69 | Nc1nc(N)c2sc3nc(C(F)(F)F)cc(C(F)(F)F)c3c2n1 | – | inconclusive: 25.9 µM [inhibitor, single point]
70 | Cc1cc(C(=O)CSc2ccc(F)cc2)cc(C)c1OC(=S)N(C)C | – | inconclusive: 1.64 µM [activator, partial curve]
71 | CN(C)c1nc(N)nc(CSc2nnnn2C)n1 | – | inconclusive: 6.51 µM [activator, partial curve, poor fit]
